{
  "source": "PubChem BioAssay AID445",
  "about": "(National Center for Advancing Translational Sciences (NCATS), 2006)",
  "test": "IkB Signaling",
  "conditions": "ABC-DLBCL IkBa-CBG/CBR dual luciferase ratio (green luciferase fused to IkBa over red control in OCI-Ly3 lymphoma cells), 4 h",
  "method_in_brief": "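Curves were fitted separately to fusion (green), unfused (red) and ratio luminescence, then classed by r2, magnitude and activity. Cells: OCI-Ly3, 4 h compound plus doxycycline at 37C; 10 uM MG-132 defined full response.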",
  "key": {"[1]": {"conditions": "measured here: control luc red channel unless noted"}},
  "note": "Some of the results follow. These are further read-outs of the screen, such as a control signal, another cell line or another target. No call is given for them. Compounds called inactive in the main read-out are mostly missing here. Words in brackets tell the shape of the fitted curve; partial curves, single points and poor fits give uncertain potencies.",
  "data": [
    {"smiles": "O=C(O)c1ccc(Nc2nc3ccccc3n3cnnc23)cc1", "values": [
      {"measurement": "AC50", "setting": "[1]", "result": "0.0501 µM [falling, full curve]"}
    ]},
    {"smiles": "CC(=O)Nc1nonc1-c1nnc(SCC(=O)Nc2cccc(F)c2)n1-c1ccccc1", "values": [
      {"measurement": "AC50", "setting": "[1]", "result": "15.8 µM [falling, partial curve]"}
    ]},
    {"smiles": "Cc1ccc(N2CCN(S(=O)(=O)c3cc(C(=O)Nc4cc(Cl)cc(Cl)c4)ccc3F)CC2C)cc1", "note": "(stereo unspecified)", "values": [
      {"measurement": "AC50", "setting": "[1]", "result": "12.6 µM [falling, single point]"}
    ]},
    {"smiles": "COC(=O)c1scc(-c2ccc(C)cc2)c1S(=O)(=O)Nc1ccc(F)cc1F", "values": [
      {"measurement": "AC50", "setting": "[1]", "result": "39.8 µM [falling, single point]"}
    ]},
    {"smiles": "c1ccc(NCc2nc(-c3ccccc3)no2)cc1", "values": [
      {"measurement": "AC50", "setting": "[1]", "result": "10 µM [falling, partial curve]"}
    ]},
    {"smiles": "O=C(Nc1ccc(N2CCOCC2)cc1)Nc1ccc2nc(-c3ccco3)c(-c3ccco3)nc2c1", "values": [
      {"measurement": "AC50", "setting": "[1]", "result": "20 µM [falling, partial curve]"}
    ]},
    {"smiles": "O=C(OCc1cc(=O)n2c(n1)sc1ccccc12)c1ccc2c(=O)n3c(nc2c1)CCC3", "values": [
      {"measurement": "AC50", "setting": "[1]", "result": "15.8 µM [falling, partial curve]"}
    ]},
    {"smiles": "COc1ccccc1N1CCN(c2ccc(=O)n(CC(=O)NCc3ccc(OC(C)C)cc3)n2)CC1", "values": [
      {"measurement": "AC50", "setting": "[1]", "result": "25.1 µM [falling, single point]"}
    ]},
    {"smiles": "O=C(Nc1ccc(Br)cc1)c1ccc(F)c(S(=O)(=O)N2CCCc3ccccc32)c1", "values": [
      {"measurement": "AC50", "setting": "[1]", "result": "7.94 µM [falling, partial curve]"}
    ]},
    {"smiles": "O=C(COc1ccc(Br)cc1Cl)Nc1ncn[nH]1", "values": [
      {"measurement": "AC50", "setting": "[1]", "result": "6.31 µM [rising, partial curve]"}
    ]},
    {"smiles": "c1ccc2c(c1)CCN(c1nc3cc4c(cc3s1)OCO4)C2", "values": [
      {"measurement": "AC50", "setting": "[1]", "result": "12.6 µM [falling, partial curve]"}
    ]},
    {"smiles": "CCc1ccc(NC(=O)CSc2nc(-c3ccccc3Cl)nc3c2Cc2c(CO)cnc(C)c2O3)cc1", "values": [
      {"measurement": "AC50", "setting": "[1]", "result": "0.794 µM [rising, full curve]"}
    ]},
    {"smiles": "COc1ccc(OCC(=O)Nc2ccc3c(c2)nc(CCNC(=O)c2ccco2)n3C)cc1", "values": [
      {"measurement": "AC50", "setting": "[1]", "result": "39.8 µM [rising, single point]"}
    ]},
    {"smiles": "Cc1ccc(Cl)cc1N1CCN(C(=O)c2ccc(CN3CCOCC3)cc2)CC1", "values": [
      {"measurement": "AC50", "setting": "[1]", "result": "15.8 µM [falling, partial curve]"}
    ]},
    {"smiles": "CCc1ccc2nc(N(Cc3cccnc3)C(C)=O)sc2c1", "values": [
      {"measurement": "AC50", "setting": "[1]", "result": "10 µM [rising, single point]"}
    ]},
    {"smiles": "CCOC(=O)c1ccc(CN(Cc2ccc(Cl)cc2Cl)S(=O)(=O)c2ccc(F)c(C)c2)cc1", "values": [
      {"measurement": "AC50", "setting": "[1]", "result": "15.8 µM [falling, partial curve]"}
    ]},
    {"smiles": "COc1ccc(C2CC(=O)N(Cc3ccc(F)cc3)c3ccccc3S2)cc1OC", "note": "(stereo unspecified)", "values": [
      {"measurement": "AC50", "setting": "[1]", "result": "20 µM [falling, partial curve]"}
    ]},
    {"smiles": "COc1ccc(OC)c2sc(N3CCN(C(=O)c4ccc5c(c4)CCCC5)CC3)nc12", "values": [
      {"measurement": "AC50", "setting": "[1]", "result": "39.8 µM [falling, single point]"}
    ]},
    {"smiles": "c1ccc(N2CCN(Cc3cccn3-c3nnc(N4CCN(C5CCCCC5)CC4)s3)CC2)cc1", "values": [
      {"measurement": "AC50", "setting": "[1]", "result": "31.6 µM [falling, partial curve, poor fit]"}
    ]},
    {"smiles": "O=C(CN1CCN(Cc2cccc(Cl)c2)C1=O)NCc1ccc(F)cc1", "values": [
      {"measurement": "AC50", "setting": "[1]", "result": "15.8 µM [falling, single point]"}
    ]},
    {"smiles": "Cc1nn(-c2ccccc2)c(-n2cccc2)c1C(=O)NCCc1ccc(Cl)cc1", "values": [
      {"measurement": "AC50", "setting": "[1]", "result": "15.8 µM [falling, partial curve]"}
    ]},
    {"smiles": "CN1/C(=C\\C(=O)COC(=O)CN2C(=O)C3CC=CCC3C2=O)C(C)(C)c2ccccc21", "note": "(stereo unspecified)", "values": [
      {"measurement": "AC50", "setting": "[1]", "result": "25.1 µM [falling, single point]"}
    ]},
    {"smiles": "COc1ccc(NC(=O)c2c(NCc3ccc(N(C)C)cc3)sc3c2CCC3)cc1", "values": [
      {"measurement": "AC50", "setting": "[1]", "result": "12.6 µM [falling, partial curve]"}
    ]},
    {"smiles": "Cc1ccsc1CN(C(=O)c1oc2ccc(F)cc2c1C)C1CCS(=O)(=O)C1", "note": "(stereo unspecified)", "values": [
      {"measurement": "AC50", "setting": "[1]", "result": "15.8 µM [falling, partial curve]"}
    ]},
    {"smiles": "Cc1ccc(Nc2ncc(C(=O)N3CCN(c4ccc(F)cc4)CC3)c3ccccc23)cc1Cl", "values": [
      {"measurement": "AC50", "setting": "[1]", "result": "1.58 µM [falling, full curve]"}
    ]},
    {"smiles": "CCOc1ccc(-c2nonc2NC(=O)c2oc3cc(C)c(C)cc3c2C)cc1OCC", "values": [
      {"measurement": "AC50", "setting": "[1]", "result": "0.794 µM [rising, full curve]"}
    ]},
    {"smiles": "CCOC(=O)c1c(-c2ccc(C)o2)csc1NC(=O)COC(=O)c1cccs1", "values": [
      {"measurement": "AC50", "setting": "[1]", "result": "31.6 µM [falling, partial curve]"}
    ]},
    {"smiles": "CCc1ccc(NC(=O)c2ccc(F)c(S(=O)(=O)N3CCC4(CC3)OCCO4)c2)cc1", "values": [
      {"measurement": "AC50", "setting": "[1]", "result": "31.6 µM [falling, single point]"}
    ]},
    {"smiles": "O=C(CS(=O)(=O)Cc1ccccc1)N1CCN(c2cccc(C(F)(F)F)c2)CC1", "values": [
      {"measurement": "AC50", "setting": "[1]", "result": "20 µM [falling, partial curve]"}
    ]},
    {"smiles": "CCS(=O)(=O)c1ccc(O)c(Nc2cc(C)nc(SC)n2)c1", "values": [
      {"measurement": "AC50", "setting": "[1]", "result": "15.8 µM [falling, partial curve]"}
    ]},
    {"smiles": "CCC(=O)C1=C(c2ccc(Cl)cc2)N(C(=O)CC)n2c(C)nnc2S1", "values": [
      {"measurement": "AC50", "setting": "measured here: IkB-luc green channel", "result": "31.6 µM [rising, single point]"},
      {"measurement": "AC50", "setting": "measured here: control luc red channel", "result": "31.6 µM [falling, single point]"}
    ]},
    {"smiles": "CCOC(=O)CSc1nnc(CNC(=O)c2cccc(C)c2)n1-c1ccccc1OC", "values": [
      {"measurement": "AC50", "setting": "[1]", "result": "15.8 µM [falling, partial curve]"}
    ]},
    {"smiles": "CCC(C)Cn1c(/C=C/c2ccccc2)nc2ccccc21", "note": "(stereo unspecified)", "values": [
      {"measurement": "AC50", "setting": "[1]", "result": "25.1 µM [falling, partial curve]"}
    ]},
    {"smiles": "CCOC(=O)c1cccc(NC(=O)c2cc3c(=O)n(C)c4ccccc4c3n2C)c1", "values": [
      {"measurement": "AC50", "setting": "[1]", "result": "3.98 µM [falling, full curve]"}
    ]},
    {"smiles": "Cc1cc(C)cc(NC(=O)c2ccc3c(c2)nnn3C2CCCC2)c1", "values": [
      {"measurement": "AC50", "setting": "[1]", "result": "1.58 µM [rising, full curve]"}
    ]},
    {"smiles": "Cc1ccc(NC2=C(CC(=O)O)C(c3ccc(F)cc3)N(c3ccc(C)cc3)C2=O)cc1", "note": "(stereo unspecified)", "values": [
      {"measurement": "AC50", "setting": "[1]", "result": "25.1 µM [falling, partial curve]"}
    ]},
    {"smiles": "CCN(CC)CCOC(=O)c1ccc(NC(=O)c2nn(C)c3c2COc2ccccc2-3)cc1", "values": [
      {"measurement": "AC50", "setting": "[1]", "result": "15.8 µM [falling, partial curve]"}
    ]},
    {"smiles": "CC1CCN(S(=O)(=O)c2nnc(NC(=O)c3ccc(C(C)C)cc3)s2)CC1", "values": [
      {"measurement": "AC50", "setting": "[1]", "result": "20 µM [falling, partial curve]"}
    ]},
    {"smiles": "O=C(c1cc(-c2cccc(Cl)c2)on1)N1CCN(c2ccccc2)CC1", "values": [
      {"measurement": "AC50", "setting": "[1]", "result": "0.1 µM [falling, full curve]"}
    ]},
    {"smiles": "CC(C)c1cnc2c(c1SCC(=O)Nc1ccc(OC(F)(F)F)cc1)c(=O)n(C)c(=O)n2C", "values": [
      {"measurement": "AC50", "setting": "[1]", "result": "0.0631 µM [falling, full curve]"}
    ]}
  ]
}
